Reference: patent publication US10688077B2, “Inflammasome activation in myelodysplastic syndromes” (H. Lee Moffitt Cancer Center and Research Institute, Inc., priority 2015, dated 2020)
Some of these results come from one statement about several compounds together.

System: MDS BM-MNC
Experiment: Colony formation assay of MDS BM-MNC in autologous BM plasma
Assay type: cell-based, human
Details: increasing concentrations, colonies scored fourteen days after plating, n=3

**Q.** How did the “colony-forming capacity, greater than controls” value turn out when `CC(C)(O)c1coc(S(=O)(=O)NC(=O)Nc2c3c(cc4c2CCC4)CCC3)c1` [MCC950] was run?
**A.** up to 6.6 fold
